# Laboratory results as given in patent US20230310573A1, “Stabilized Vaccine Compositions” (priority 2020, published 2023).
# Target: T1, RSV pre-fusion F protein of SEQ ID NO: 10 (Human respiratory syncytial virus A, UniProt P03420, D486N/DEL108-136/I379V/M447V/N67I/P102A/S215P)
# T1 construct: made in house
# Assay type: physicochemical
# Method: The RSV pre-fusion F protein of SEQ ID NO: 10 was diluted to 0.3 mg/ml in phosphate buffer (Formulation 1) and 0.75 ml was filled in glass injection vials with rubber stopper and sealed with aluminum caps. Additionally, protein was diluted in the formulation buffers with inhibitor in a 1:3 trimer:compound ratio. One inhibitor binds one trimer so with a 1:3 ratio there is an excess of inhibitor. […] In 24 hours, samples were cooled down from RT to −70° C. Samples were thawed to RT and analyzed by analytical Size Exclusion Chromatography (SEC) to measure loss of RSV F trimer.
# 0.75 ml of each formulation was filled in glass injection vials with rubber stopper and sealed with aluminum caps. Additionally, protein was diluted in the formulation buffers and inhibitor was added in a 1:1, 1:3, 1:9, 1:27 and 1:50 trimer: compound ratio. Final compound concentrations were 1.7×10^−6 M, 5.2×10^−6 M, 1.6×10^−5M, 4.6×10^−5, and 8.6×10^−5 M, respectively. Vials were slowly frozen to −70° C. in 24 hours. Samples were subsequently thawed to RT and analyzed by analytical Size Exclusion Chromatography (SEC) to measure loss of RSV F trimer compared the sample that was kept at 4° C.
structure (smiles),measurement,value
"Cc1ccc(CCCO)c(NCc2ccc3nc(NCCCN4CCOCC4)n(Cc4nc(C)ccc4O)c3c2)c1 [Compound I, 2-[[6-[[2-(3-hydroxypropyl)-5-methyl-anilino]methyl]-2-(3-morpholinopropylamino)benzimidazol-1-yl]methyl]-6-methyl-pyridin-3-ol]",aggregation after slow freeze,no aggregations were observed
same,trimer % after slow freeze with compound vs without,higher trimer %
